Experimental data: PubChem BioAssay AID1259405 (NCATS, 2018)

Aim: 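Knock-downs that lift recombinant protein yield in hamster ovary cells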 (primary screen)
Cells: Chinese hamster CHO-K1 ovary cells with stable secreted eGFP expression
Reagent: single siRNA against mouse genes, 0.8 pmol siRNA per well (2 µl of 400 nM stock)
Duration: 3 days
Measured: 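Per-well intracellular GFP measured by laser scanning cytometry, plus viability from ATP luminescence, each relative to plate median of non-targeting control wells, in %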
Scale: GFP, % of control: higher = more GFP per well, higher productivity; viability (ATP), % of control: higher = more viable cells (more ATP)
Rule for the call: 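Called active when intracellular GFP, relative to negative control, is at or above 120%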
In all, the deposit lists about 50,000 reagents; this is an unselected part. Over the whole deposit, about 4,000 (8%) were called active. 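Mouse siRNA library applied to hamster cells; one well for each siRNA.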 Reagents against one gene are numbered here.

{"gene symbol": "Slc35a4", "siRNA no.": 1, "GFP, % of control": 156, "viability (ATP), % of control": 57.7, "activity call": "active"}
{"gene symbol": "Slc35a4", "siRNA no.": 2, "GFP, % of control": 145, "viability (ATP), % of control": 79, "activity call": "active"}
{"gene symbol": "Slc35a4", "siRNA no.": 3, "GFP, % of control": 77.8, "viability (ATP), % of control": 88.5, "activity call": "inactive"}
{"gene symbol": "Mettl18", "siRNA no.": 1, "GFP, % of control": 92.5, "viability (ATP), % of control": 82.3, "activity call": "inactive"}
{"gene symbol": "Mettl18", "siRNA no.": 2, "GFP, % of control": 93.7, "viability (ATP), % of control": 70.5, "activity call": "inactive"}
{"gene symbol": "Mettl18", "siRNA no.": 3, "GFP, % of control": 128, "viability (ATP), % of control": 55.4, "activity call": "active"}
{"gene symbol": "Apoa5", "siRNA no.": 1, "GFP, % of control": 89.5, "viability (ATP), % of control": 103, "activity call": "inactive"}
{"gene symbol": "Apoa5", "siRNA no.": 2, "GFP, % of control": 181, "viability (ATP), % of control": 72.2, "activity call": "active"}
{"gene symbol": "Apoa5", "siRNA no.": 3, "GFP, % of control": 56.3, "viability (ATP), % of control": 57.3, "activity call": "inactive"}
{"gene symbol": "Nle1", "siRNA no.": 1, "GFP, % of control": 35.2, "viability (ATP), % of control": 60.3, "activity call": "inactive"}
{"gene symbol": "Nle1", "siRNA no.": 2, "GFP, % of control": 47.7, "viability (ATP), % of control": 84, "activity call": "inactive"}
{"gene symbol": "Nle1", "siRNA no.": 3, "GFP, % of control": 112, "viability (ATP), % of control": 143, "activity call": "inactive"}
{"gene symbol": "Tmco1", "siRNA no.": 1, "GFP, % of control": 76.6, "viability (ATP), % of control": 78.5, "activity call": "inactive"}
{"gene symbol": "Tmco1", "siRNA no.": 2, "GFP, % of control": 77.8, "viability (ATP), % of control": 44.8, "activity call": "inactive"}
{"gene symbol": "Tmco1", "siRNA no.": 3, "GFP, % of control": 50.3, "viability (ATP), % of control": 51.8, "activity call": "inactive"}
{"gene symbol": "Qtman", "siRNA no.": 1, "GFP, % of control": 43.5, "viability (ATP), % of control": 64.7, "activity call": "inactive"}
{"gene symbol": "Qtman", "siRNA no.": 2, "GFP, % of control": 88.5, "viability (ATP), % of control": 82.4, "activity call": "inactive"}
{"gene symbol": "Qtman", "siRNA no.": 3, "GFP, % of control": 104, "viability (ATP), % of control": 74.5, "activity call": "inactive"}
{"gene symbol": "Zfp39", "siRNA no.": 1, "GFP, % of control": 127, "viability (ATP), % of control": 111, "activity call": "active"}
{"gene symbol": "Zfp39", "siRNA no.": 2, "GFP, % of control": 78.7, "viability (ATP), % of control": 63.9, "activity call": "inactive"}
{"gene symbol": "Zfp39", "siRNA no.": 3, "GFP, % of control": 80.4, "viability (ATP), % of control": 92.1, "activity call": "inactive"}
{"gene symbol": "Tmprss11c", "siRNA no.": 1, "GFP, % of control": 103, "viability (ATP), % of control": 99.3, "activity call": "inactive"}
{"gene symbol": "Tmprss11c", "siRNA no.": 2, "GFP, % of control": 37.2, "viability (ATP), % of control": 51.4, "activity call": "inactive"}
{"gene symbol": "Tmprss11c", "siRNA no.": 3, "GFP, % of control": 82.2, "viability (ATP), % of control": 86, "activity call": "inactive"}
{"gene symbol": "Dipk1b", "siRNA no.": 1, "GFP, % of control": 93.3, "viability (ATP), % of control": 66.1, "activity call": "inactive"}
{"gene symbol": "Dipk1b", "siRNA no.": 2, "GFP, % of control": 92.5, "viability (ATP), % of control": 86.4, "activity call": "inactive"}
{"gene symbol": "Dipk1b", "siRNA no.": 3, "GFP, % of control": 82.3, "viability (ATP), % of control": 62.4, "activity call": "inactive"}
{"gene symbol": "Psapl1", "siRNA no.": 1, "GFP, % of control": 85.7, "viability (ATP), % of control": 87.2, "activity call": "inactive"}
{"gene symbol": "Psapl1", "siRNA no.": 2, "GFP, % of control": 40.9, "viability (ATP), % of control": 40.6, "activity call": "inactive"}
{"gene symbol": "Psapl1", "siRNA no.": 3, "GFP, % of control": 53.2, "viability (ATP), % of control": 77.4, "activity call": "inactive"}
{"gene symbol": "Ppp1r9a", "siRNA no.": 1, "GFP, % of control": 95.9, "viability (ATP), % of control": 87.3, "activity call": "inactive"}
{"gene symbol": "Ppp1r9a", "siRNA no.": 2, "GFP, % of control": 161, "viability (ATP), % of control": 20.5, "activity call": "active"}
{"gene symbol": "Ppp1r9a", "siRNA no.": 3, "GFP, % of control": 71.3, "viability (ATP), % of control": 88.5, "activity call": "inactive"}
{"gene symbol": "Dapl1", "siRNA no.": 1, "GFP, % of control": 114, "viability (ATP), % of control": 64, "activity call": "inactive"}
{"gene symbol": "Dapl1", "siRNA no.": 2, "GFP, % of control": 27.5, "viability (ATP), % of control": 26, "activity call": "inactive"}
{"gene symbol": "Dapl1", "siRNA no.": 3, "GFP, % of control": 80, "viability (ATP), % of control": 93.4, "activity call": "inactive"}
{"gene symbol": "P2ry13", "siRNA no.": 1, "GFP, % of control": 111, "viability (ATP), % of control": 67.8, "activity call": "inactive"}
{"gene symbol": "P2ry13", "siRNA no.": 2, "GFP, % of control": 103, "viability (ATP), % of control": 57.4, "activity call": "inactive"}
{"gene symbol": "P2ry13", "siRNA no.": 3, "GFP, % of control": 84.5, "viability (ATP), % of control": 86.6, "activity call": "inactive"}
{"gene symbol": "Gnrhr", "siRNA no.": 1, "GFP, % of control": 44.4, "viability (ATP), % of control": 54.8, "activity call": "inactive"}
{"gene symbol": "Gnrhr", "siRNA no.": 2, "GFP, % of control": 82.3, "viability (ATP), % of control": 93.6, "activity call": "inactive"}
{"gene symbol": "Gnrhr", "siRNA no.": 3, "GFP, % of control": 143, "viability (ATP), % of control": 57, "activity call": "active"}
